Reference: article PMC6433232, “Targeting mitochondria in cancer therapy could provide a basis for the selective anti-cancer activity” (PLoS ONE, 2019)

Test system: primary acute myeloid leukemia (AML) cells obtained from patients
Test: Kinase inhibitor library screening with and without NSC130362, primary AML cells
Assay type: cell-based, Human
Details: ratio of EC50 for inhibitor to EC50 for inhibitor/NSC130362 combination, NSC130362 10 μM

| EC50 decrease, fold (Screen N 1) | EC50 decrease, fold (Screen N 2) | EC50 decrease, fold (Screen N 3) (Screen N 3) | Compound |
| --- | --- | --- | --- |
| 0.476 fold | 1.0 fold | – | CNC(=O)c1ccccc1Sc1ccc2c(/C=C/c3ccccn3)n[nH]c2c1 [Axitinib (AG-013736)] |
| 1.1 fold | 1.0 fold | 25.1 fold | CO[C@@H]1[C@H](N(C)C(=O)c2ccccc2)C[C@H]2O[C@]1(C)n1c3ccccc3c3c4c(c5c6ccccc6n2c5c31)C(=O)NC4 [Midostaurin (PKC412)] |
